For data set [1], the target named is T1, ATP-dependent translocase ABCB1 (MDR1) (Homo sapiens, UniProt P08183). The experiment in a line: in vitro. To be noted: dog, MDCK-MDR1.
Data set [2] addresses T1, ATP-dependent translocase ABCB1 (MDR1). The experiment in a line: in vitro. To be noted: dog, MDCK-MDR1. The source holds these as a separate data set.
Data set [3] shares this target. As to the kind of experiment: in vitro. Conditions: dog, MDCK-MDR1. This is another data set of the same source.
Data set [4] concerns the target ATP-dependent translocase ABCB1 (Homo sapiens, UniProt P08183). To be noted: spodoptera frugiperda, sf9, 20 µM.

By UniProt entry, the sequences of proteins in these tests, tags left out.
UniProt P08183, whole entry: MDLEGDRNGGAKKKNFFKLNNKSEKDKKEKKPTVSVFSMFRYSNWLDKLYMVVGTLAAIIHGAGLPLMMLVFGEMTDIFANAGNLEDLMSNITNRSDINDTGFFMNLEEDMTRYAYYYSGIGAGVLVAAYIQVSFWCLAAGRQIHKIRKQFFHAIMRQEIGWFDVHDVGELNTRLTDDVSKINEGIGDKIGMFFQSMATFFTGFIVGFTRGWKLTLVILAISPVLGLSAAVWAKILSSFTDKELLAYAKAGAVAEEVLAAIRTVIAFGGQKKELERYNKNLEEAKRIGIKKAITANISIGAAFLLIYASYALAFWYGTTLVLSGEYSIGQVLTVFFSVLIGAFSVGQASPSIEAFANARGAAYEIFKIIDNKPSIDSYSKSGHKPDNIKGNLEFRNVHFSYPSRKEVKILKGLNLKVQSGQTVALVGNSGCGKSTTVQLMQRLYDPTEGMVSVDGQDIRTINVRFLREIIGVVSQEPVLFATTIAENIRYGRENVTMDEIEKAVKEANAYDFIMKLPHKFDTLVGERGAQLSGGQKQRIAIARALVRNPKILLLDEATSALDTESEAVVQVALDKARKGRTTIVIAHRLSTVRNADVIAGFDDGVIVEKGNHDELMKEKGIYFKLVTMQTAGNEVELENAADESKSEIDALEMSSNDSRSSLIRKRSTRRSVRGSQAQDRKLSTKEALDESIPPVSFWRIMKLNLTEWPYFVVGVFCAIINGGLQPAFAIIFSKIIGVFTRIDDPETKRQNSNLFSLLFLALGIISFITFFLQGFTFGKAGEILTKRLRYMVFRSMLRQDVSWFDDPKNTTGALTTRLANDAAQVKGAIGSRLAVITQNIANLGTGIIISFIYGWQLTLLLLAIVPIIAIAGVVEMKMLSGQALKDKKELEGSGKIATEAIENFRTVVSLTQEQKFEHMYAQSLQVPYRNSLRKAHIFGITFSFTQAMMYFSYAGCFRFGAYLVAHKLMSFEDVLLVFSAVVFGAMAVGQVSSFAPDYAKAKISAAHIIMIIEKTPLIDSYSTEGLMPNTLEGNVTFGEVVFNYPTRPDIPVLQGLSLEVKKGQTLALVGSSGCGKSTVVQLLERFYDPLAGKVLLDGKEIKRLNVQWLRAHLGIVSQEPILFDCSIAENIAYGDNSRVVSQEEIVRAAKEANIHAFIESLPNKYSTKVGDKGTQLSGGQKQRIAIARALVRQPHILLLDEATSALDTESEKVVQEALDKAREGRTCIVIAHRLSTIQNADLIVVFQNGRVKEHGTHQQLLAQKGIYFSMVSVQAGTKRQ

Molecules are shown by their SMILES.
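For Ratio ATPase activity in this document: Compound-stimulated ATPase activity measured in membrane preparations of MDR1-expressing Sf9 cells.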

The efflux ratio is the permeability from basolateral to apical divided by that in the opposite direction, in the common usage. Usually Papp A→B stands for the apparent permeability from the apical to the basolateral side of a cell layer. A lower Papp A→B goes with slow passage. Usually Papp B→A stands for how fast a substance crosses the layer from the basolateral side. Turning to `COC(=O)C1=C(C)NC(C)=C(C(=O)OC)C1c1ccccc1[N+](=O)[O-]` [NIFEDIPINE], the efflux ratio in data set [1] is 1.26. Also, the Papp A→B in data set [2] is 61 ×10⁻⁶ cm/s. Further, the Papp B→A in data set [3] turned out to be 76.5 ×10⁻⁶ cm/s. Moreover, the Ratio_ATPase activity in data set [4] was 2.08.

The values are drawn from ChEMBL document CHEMBL1908284, “Rational use of in vitro P-glycoprotein assays in drug discovery” (J Pharmacol Exp Ther, 2001).
